# Assay results from the supplement of paper PMC12819154, “High-throughput peptide-centric local stability assay extends protein–ligand identification to membrane proteins, tissues and bacteria” (Nature Structural & Molecular Biology, 2025).
# The chains behind the UniProt entries cited, without tags or fusion partners. Where a name states a change or a piece, a line headed by the entry shows the natural chain unless it says otherwise.
# UniProt Q80W00: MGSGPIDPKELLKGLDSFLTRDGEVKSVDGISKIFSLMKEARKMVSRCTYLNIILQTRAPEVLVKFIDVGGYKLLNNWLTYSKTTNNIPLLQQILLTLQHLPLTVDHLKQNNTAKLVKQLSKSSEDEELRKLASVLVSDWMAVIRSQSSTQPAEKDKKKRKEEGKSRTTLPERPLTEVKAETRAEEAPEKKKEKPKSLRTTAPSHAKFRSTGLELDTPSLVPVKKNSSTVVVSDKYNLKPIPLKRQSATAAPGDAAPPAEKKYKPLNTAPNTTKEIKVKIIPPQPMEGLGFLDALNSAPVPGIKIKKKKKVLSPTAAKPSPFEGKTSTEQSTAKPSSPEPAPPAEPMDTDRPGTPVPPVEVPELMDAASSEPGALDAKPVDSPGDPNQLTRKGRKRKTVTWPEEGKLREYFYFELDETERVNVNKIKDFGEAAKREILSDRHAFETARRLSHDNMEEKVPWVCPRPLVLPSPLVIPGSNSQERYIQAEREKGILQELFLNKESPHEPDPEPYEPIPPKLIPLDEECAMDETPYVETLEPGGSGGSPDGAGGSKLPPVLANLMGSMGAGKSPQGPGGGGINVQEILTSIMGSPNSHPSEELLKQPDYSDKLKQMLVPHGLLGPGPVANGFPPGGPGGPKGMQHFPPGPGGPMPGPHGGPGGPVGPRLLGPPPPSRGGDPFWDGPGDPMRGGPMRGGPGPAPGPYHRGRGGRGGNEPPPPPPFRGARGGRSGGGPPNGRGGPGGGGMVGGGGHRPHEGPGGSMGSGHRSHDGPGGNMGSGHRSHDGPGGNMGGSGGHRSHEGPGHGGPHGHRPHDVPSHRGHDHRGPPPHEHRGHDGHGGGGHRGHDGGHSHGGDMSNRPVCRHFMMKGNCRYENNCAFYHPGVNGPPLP
# UniProt Q8BFQ8: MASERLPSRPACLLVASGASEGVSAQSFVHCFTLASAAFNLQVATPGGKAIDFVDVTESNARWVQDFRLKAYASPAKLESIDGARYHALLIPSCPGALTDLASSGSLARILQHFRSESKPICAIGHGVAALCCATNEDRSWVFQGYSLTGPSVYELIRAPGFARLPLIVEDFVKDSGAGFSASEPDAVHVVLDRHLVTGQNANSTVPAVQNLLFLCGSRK
# UniProt Q6VN19, whole entry: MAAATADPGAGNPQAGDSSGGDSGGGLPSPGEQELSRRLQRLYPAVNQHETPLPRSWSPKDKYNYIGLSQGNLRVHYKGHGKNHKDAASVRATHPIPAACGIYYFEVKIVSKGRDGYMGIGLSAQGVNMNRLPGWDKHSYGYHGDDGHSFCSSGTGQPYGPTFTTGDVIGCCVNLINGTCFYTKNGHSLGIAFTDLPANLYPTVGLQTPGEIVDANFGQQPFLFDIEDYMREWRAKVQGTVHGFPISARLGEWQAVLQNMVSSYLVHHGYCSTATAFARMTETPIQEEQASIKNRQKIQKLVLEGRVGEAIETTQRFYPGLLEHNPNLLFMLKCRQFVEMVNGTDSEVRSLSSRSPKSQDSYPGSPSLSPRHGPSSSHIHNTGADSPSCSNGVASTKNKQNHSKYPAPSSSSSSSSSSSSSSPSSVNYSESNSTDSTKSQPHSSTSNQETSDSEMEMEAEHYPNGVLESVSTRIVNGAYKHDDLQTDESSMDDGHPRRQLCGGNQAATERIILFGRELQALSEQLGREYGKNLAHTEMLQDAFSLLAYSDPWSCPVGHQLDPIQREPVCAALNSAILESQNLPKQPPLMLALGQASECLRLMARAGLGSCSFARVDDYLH
# UniProt Q7M6Y3: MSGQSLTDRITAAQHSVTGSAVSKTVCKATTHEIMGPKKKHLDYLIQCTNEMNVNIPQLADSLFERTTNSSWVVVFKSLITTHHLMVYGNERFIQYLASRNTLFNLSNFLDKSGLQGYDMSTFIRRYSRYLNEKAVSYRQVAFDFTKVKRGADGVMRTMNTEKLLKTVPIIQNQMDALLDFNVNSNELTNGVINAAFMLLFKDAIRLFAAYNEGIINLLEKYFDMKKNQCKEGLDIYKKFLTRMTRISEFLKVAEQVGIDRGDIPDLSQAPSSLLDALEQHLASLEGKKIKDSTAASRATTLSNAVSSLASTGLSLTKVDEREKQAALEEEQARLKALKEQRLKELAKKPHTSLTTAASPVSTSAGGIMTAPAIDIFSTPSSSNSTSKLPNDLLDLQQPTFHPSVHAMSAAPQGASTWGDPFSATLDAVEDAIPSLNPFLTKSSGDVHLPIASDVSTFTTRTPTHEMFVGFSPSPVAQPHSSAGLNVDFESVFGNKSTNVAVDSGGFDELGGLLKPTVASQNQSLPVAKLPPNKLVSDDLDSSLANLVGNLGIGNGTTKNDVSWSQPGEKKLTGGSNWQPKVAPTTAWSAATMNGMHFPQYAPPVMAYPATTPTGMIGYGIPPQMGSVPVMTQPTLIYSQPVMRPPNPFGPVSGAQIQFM
# UniProt Q80YR5: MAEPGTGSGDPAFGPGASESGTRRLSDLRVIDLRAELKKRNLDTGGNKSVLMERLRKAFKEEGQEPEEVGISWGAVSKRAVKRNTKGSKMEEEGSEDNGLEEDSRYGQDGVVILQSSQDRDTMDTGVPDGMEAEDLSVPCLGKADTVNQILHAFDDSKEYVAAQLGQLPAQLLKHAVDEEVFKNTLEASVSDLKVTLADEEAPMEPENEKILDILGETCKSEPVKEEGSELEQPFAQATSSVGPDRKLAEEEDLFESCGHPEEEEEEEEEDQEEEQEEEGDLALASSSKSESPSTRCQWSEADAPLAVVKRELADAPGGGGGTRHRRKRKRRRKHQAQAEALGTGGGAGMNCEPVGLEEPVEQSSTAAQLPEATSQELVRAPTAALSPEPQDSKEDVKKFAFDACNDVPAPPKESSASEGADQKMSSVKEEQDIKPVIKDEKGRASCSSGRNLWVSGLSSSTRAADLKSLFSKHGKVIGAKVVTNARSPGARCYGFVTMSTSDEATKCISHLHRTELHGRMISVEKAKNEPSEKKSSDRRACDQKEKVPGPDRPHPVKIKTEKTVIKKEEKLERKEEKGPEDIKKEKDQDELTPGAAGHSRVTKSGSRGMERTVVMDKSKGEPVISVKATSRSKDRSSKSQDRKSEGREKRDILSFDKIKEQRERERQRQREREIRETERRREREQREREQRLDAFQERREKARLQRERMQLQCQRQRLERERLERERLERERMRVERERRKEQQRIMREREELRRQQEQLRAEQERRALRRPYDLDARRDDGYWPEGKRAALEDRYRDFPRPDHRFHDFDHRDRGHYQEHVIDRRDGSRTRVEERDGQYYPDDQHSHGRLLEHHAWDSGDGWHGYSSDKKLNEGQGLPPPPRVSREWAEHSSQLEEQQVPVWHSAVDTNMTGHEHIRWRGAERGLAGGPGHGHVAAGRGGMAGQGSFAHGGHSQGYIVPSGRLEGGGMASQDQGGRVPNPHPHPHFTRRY
# UniProt Q75N73: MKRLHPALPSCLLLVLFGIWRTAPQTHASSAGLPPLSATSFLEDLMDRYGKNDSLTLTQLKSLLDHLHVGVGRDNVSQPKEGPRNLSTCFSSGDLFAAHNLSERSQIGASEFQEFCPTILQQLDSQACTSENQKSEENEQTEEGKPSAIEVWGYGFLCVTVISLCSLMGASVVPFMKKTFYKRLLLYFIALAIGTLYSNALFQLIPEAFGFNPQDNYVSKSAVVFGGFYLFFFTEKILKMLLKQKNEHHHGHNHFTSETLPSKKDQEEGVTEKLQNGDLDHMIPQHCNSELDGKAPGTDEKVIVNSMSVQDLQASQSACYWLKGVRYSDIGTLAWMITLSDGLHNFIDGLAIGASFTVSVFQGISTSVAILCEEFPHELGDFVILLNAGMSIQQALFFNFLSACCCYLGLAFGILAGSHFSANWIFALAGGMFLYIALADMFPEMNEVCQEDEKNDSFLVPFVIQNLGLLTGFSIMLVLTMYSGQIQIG
# UniProt Q8BGD8: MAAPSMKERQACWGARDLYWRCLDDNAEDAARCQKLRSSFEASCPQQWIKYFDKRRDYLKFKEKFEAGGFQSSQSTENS
# UniProt Q6TEK5: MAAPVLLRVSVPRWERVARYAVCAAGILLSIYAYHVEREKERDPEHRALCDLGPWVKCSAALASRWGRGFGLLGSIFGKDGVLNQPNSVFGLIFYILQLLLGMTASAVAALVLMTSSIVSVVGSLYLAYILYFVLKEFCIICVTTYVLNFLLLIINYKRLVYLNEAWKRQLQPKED
# UniProt Q80W54: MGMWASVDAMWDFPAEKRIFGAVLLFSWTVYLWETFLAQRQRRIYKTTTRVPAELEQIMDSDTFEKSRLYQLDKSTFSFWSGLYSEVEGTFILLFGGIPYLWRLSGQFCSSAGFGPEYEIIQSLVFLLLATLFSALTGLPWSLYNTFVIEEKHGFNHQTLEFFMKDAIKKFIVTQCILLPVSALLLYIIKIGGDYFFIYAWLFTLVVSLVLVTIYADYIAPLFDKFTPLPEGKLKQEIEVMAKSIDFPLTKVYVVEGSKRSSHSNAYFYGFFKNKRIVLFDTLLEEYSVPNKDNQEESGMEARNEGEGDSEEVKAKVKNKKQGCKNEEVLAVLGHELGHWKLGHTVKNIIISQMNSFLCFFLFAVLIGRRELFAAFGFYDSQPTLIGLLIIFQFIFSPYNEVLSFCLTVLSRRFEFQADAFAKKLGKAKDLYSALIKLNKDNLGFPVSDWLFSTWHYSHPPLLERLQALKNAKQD
# UniProt Q6P8M1: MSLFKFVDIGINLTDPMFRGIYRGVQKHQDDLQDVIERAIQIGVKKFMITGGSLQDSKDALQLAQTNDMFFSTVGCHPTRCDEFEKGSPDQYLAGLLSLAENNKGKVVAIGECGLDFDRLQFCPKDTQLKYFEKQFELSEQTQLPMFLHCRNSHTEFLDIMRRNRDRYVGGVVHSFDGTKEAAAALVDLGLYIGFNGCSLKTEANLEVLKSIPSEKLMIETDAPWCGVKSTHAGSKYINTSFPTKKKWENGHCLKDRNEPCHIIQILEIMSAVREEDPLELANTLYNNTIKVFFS
# UniProt Q8BG32, whole entry: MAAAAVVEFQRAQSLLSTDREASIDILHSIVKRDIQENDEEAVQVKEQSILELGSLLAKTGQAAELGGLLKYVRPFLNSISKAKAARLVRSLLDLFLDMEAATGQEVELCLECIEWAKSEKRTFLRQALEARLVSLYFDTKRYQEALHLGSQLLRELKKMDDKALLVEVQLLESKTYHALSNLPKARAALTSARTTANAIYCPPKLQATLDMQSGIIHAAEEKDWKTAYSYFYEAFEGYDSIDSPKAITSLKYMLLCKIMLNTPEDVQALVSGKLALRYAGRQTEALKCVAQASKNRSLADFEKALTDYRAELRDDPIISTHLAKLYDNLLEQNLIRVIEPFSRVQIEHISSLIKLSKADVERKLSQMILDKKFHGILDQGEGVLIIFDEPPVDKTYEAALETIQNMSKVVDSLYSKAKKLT
# UniProt Q78IK4: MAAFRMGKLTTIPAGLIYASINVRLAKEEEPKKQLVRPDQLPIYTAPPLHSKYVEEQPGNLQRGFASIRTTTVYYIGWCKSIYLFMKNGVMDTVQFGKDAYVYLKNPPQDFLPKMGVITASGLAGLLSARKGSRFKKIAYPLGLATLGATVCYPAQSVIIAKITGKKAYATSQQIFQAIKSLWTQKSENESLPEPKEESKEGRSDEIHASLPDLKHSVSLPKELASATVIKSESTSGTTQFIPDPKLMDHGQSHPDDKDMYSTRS
# UniProt Q6P1H6: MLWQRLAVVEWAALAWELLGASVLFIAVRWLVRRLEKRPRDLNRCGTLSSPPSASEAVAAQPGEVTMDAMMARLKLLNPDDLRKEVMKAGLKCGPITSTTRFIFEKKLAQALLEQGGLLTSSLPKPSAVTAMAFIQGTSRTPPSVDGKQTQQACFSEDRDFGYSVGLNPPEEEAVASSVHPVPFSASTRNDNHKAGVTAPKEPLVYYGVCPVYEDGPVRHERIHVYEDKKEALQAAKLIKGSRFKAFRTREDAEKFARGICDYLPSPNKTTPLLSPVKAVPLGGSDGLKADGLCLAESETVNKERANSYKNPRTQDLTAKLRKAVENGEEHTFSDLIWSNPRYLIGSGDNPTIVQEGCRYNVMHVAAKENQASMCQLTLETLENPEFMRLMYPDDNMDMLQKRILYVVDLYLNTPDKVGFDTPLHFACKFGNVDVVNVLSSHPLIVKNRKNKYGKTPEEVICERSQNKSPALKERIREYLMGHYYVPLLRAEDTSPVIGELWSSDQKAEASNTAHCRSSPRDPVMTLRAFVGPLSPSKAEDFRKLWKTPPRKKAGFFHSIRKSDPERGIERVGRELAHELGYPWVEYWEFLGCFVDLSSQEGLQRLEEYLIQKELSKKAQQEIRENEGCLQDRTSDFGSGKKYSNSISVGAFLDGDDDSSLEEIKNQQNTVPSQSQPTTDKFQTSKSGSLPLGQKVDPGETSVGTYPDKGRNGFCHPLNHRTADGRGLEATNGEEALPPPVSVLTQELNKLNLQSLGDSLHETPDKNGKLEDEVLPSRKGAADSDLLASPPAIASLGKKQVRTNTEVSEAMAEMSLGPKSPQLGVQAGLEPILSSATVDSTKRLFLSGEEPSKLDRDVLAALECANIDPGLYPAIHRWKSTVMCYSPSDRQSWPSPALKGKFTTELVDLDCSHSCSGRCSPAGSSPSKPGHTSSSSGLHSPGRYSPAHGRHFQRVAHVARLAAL
# The other results are listed elsewhere or left out. Most entries show no effect beyond the scatter of the controls.
# Compound: CN[C@@H]1C[C@H]2O[C@@](C)([C@@H]1OC)n1c3ccccc3c3c4c(c5c6ccccc6n2c5c31)C(=O)NC4 [staurosporine]
# Experiment: log2 fold change of pooled soluble protein (PISA), ligand vs vehicle (log2 ratio); higher = more thermally stabilized
# Details: ligand concentration: 20 uM; assay format: PISA pool 52.9/55.5/58.6 C
row,Target,log2 fold change of pooled soluble protein
1,UniProt Q80W00,0.0214
2,UniProt Q80X73,0.0579
3,UniProt Q80TM6,0.459
4,UniProt Q8BFR5,-0.123
5,UniProt Q7TPQ3,0.00988
6,UniProt Q8BFQ8,-0.000591
7,UniProt Q80VP5,-0.0161
8,UniProt Q6ZPZ3,-0.0349
9,UniProt Q7TMC8,0.0133
10,UniProt Q6VN19,-0.0203
11,UniProt Q7M6Y3,-0.0485
12,UniProt Q7TNG5,0.0932
13,UniProt Q80ZJ1,0.024
14,UniProt Q80YR5,-0.0329
15,UniProt Q75N73,-0.0684
16,UniProt Q6ZQ08,0.0132
17,UniProt Q6ZPY7,0.129
18,UniProt Q6P3D0,0.0445

# Reformatted with bars between the fields: entries from further up.
row | Target | log2 fold change of pooled soluble protein
9 | UniProt Q7TMC8 | 0.0133
10 | UniProt Q6VN19 | -0.0203
11 | UniProt Q7M6Y3 | -0.0485
12 | UniProt Q7TNG5 | 0.0932
13 | UniProt Q80ZJ1 | 0.024
14 | UniProt Q80YR5 | -0.0329
15 | UniProt Q75N73 | -0.0684
16 | UniProt Q6ZQ08 | 0.0132
17 | UniProt Q6ZPY7 | 0.129
18 | UniProt Q6P3D0 | 0.0445

# The results go on:

row,Target,log2 fold change of pooled soluble protein
1,UniProt Q8BGD8,0.0281
2,UniProt Q8BGR9,0.0772
3,UniProt Q80XL6,0.0144
4,UniProt Q6TEK5,0.0379
5,UniProt Q8BFU3,-0.0152
6,UniProt Q80W54,0.0352
7,UniProt Q6P8M1,0.146
8,UniProt Q8BG32,-0.0651
9,UniProt Q78IK4,-0.0517
10,UniProt Q8BG05,-0.00323
11,UniProt Q8BGC0,-0.167
12,UniProt Q80XA6,0.0794
13,UniProt Q8BGI5,0.477
14,UniProt Q80UU9,0.479
15,UniProt Q80Y98,-0.0498
16,UniProt Q7TPM1,0.00256
17,UniProt Q6PR54,0.0108
18,UniProt Q6P1H6,0.0788
